Results are given in words; binding and its absence hold for the method and conditions named. Binding seen in cells or lysates may run through a third protein. Some binding calls cover weakened binding; strength is not graded here.
Tests used:
[1] = target: phosphorylated histone deacetylase3 (human (endogenous in embryonic NSCs)) (UniProt O15379); assay: co-IP; endogenous proteins in lysate of human embryonic NSCs (some panels with sh-NC or sh-PINK1 knock-down); lysis buffer 50 mM Tris-HCl pH 7.4, 150 mM NaCl, 10% glycerol, 1 mM EDTA, 0.5% NP-40; anti-PINK1 or anti-HDAC3 antibody with protein A/G beads for 2 h; western blot
[2] = target: PTEN-induced putative kinase 1 (human (endogenous in embryonic NSCs)) (UniProt Q9BXM7); assay: as above

Amino acid sequences for entries named in this document (tags omitted). Residues count along the entry.
UniProt O15379: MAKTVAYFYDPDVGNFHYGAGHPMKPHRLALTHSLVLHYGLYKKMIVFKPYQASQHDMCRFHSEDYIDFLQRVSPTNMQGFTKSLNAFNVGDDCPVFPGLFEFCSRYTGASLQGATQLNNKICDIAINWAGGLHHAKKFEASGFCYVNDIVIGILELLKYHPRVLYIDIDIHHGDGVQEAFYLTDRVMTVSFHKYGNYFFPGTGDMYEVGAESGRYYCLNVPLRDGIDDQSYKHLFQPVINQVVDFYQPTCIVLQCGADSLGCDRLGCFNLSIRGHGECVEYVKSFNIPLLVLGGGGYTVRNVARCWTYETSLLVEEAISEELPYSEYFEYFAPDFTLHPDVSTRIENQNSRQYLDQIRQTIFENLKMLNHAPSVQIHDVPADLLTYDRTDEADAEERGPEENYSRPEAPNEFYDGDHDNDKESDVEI
UniProt Q9BXM7, residues 78-581: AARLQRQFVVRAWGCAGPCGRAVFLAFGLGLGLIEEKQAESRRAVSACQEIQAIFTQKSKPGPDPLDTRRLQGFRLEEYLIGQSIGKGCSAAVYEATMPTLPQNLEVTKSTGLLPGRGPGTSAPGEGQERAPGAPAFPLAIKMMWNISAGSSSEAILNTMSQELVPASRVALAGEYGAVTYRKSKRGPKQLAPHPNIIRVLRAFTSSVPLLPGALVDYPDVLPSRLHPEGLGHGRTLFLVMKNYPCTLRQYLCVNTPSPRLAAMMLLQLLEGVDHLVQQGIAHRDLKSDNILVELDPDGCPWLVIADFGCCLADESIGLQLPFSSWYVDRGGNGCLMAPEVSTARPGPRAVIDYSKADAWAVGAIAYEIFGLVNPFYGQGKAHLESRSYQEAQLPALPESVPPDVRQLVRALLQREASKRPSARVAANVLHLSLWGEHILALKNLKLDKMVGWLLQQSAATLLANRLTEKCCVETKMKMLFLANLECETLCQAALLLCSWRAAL
UniProt O43524: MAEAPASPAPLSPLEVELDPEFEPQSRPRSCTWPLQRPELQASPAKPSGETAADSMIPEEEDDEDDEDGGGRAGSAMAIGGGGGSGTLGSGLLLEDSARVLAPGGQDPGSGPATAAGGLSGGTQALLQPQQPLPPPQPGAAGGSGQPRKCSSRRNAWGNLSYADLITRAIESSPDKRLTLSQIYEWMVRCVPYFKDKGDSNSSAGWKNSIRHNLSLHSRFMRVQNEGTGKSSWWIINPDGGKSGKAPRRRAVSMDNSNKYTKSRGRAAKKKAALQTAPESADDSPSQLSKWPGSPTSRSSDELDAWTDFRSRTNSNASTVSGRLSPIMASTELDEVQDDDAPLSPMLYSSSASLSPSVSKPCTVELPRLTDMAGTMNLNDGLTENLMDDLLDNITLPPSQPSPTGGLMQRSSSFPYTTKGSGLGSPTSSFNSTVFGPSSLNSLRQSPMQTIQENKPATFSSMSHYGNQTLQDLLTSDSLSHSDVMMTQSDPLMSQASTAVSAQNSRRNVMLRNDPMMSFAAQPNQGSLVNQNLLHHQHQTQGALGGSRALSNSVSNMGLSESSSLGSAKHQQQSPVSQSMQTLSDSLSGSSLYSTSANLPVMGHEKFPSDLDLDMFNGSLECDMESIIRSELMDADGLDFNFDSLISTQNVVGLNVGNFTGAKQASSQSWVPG

| Substance | binding [1] | binding [2] |
| --- | --- | --- |
| forkhead box O3 (from UniProt O43524 1-673) | binds | binds |
| histone deacetylase3 (from UniProt O15379 1-428) | – | binds |
